In PMC12860950 one finds binding data, which are given here for one substance.

Amino acid sequences for entries named in this document (tags omitted).
UniProt P68101: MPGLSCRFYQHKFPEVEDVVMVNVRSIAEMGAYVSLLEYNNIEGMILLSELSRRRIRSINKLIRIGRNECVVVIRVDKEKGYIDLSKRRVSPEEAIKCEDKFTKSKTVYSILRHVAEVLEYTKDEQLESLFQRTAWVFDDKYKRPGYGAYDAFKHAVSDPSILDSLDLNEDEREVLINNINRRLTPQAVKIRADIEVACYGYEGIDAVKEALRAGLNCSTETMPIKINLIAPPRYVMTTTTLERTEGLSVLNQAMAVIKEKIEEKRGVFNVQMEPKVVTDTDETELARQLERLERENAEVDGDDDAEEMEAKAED
UniProt P81795: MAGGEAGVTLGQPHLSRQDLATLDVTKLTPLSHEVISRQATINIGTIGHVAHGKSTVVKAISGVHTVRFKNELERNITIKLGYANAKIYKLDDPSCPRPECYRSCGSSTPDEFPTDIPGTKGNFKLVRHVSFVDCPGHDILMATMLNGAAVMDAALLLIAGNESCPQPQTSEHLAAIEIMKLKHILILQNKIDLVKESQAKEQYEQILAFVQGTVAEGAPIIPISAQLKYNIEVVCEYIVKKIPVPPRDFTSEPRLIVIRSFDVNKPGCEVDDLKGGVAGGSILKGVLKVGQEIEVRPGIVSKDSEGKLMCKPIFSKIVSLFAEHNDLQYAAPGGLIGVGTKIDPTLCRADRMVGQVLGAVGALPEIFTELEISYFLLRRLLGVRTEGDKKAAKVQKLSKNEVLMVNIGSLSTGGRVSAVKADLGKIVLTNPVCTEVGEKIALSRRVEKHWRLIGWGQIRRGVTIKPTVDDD

The target in this experiment is eukaryotic translation initiation factor eIF2 α subunit (rat (endogenous in rat diploid fibroblasts)) (UniProt P68101). Briefly: co-IP; eIF2α antibody (or control IgG) conjugated to magnetic Dynabeads M270 Epoxy; lysates of WT and CDC123-A109V rat fibroblasts placed at 33.8 °C or 37 °C for about 18 h; IP lysis buffer 150 mM NaCl, 50 mM Tris-HCl pH 8.0, 1% Triton X-100; 2 h at 4 °C; immunoblot of the eIF2 subunits; less co-precipitate from CDC123-A109V cells at 37 °C.

No constants are given. Whether binding was seen depends on the method and setting. In cells and extracts the contact can be indirect. Some results given as binding are weak or reduced against the parent protein; the word gives no strength.

As for “eukaryotic translation initiation factor eIF2 γ subunit (from UniProt P81795 1-472)”, the binding result is listed as “binds”.
